Part of at least one peptide drawing is inferred or uncertain, most often the ends. Where no end group is shown, it is not given here.
Columns and labels:
[1] = test system: B16/F10 cells (murine melanoma); assay: Cell adhesion assay: tumor cells bound to peptide-coated wells; format: cell-based
Protocol: The cell-adhesion assay measures the binding of tumor cells to laminin immobilized on the surface of a culture dish. The peptides of the invention can be substituted for the immobilized laminin to measure the binding constants of the peptides and compare binding constants of the peptides of the invention with laminin or other known laminin peptides. In this assay, solubilized peptides are incubated on tissue culture well plates and nonspecific cell binding is blocked by the addition of bovine serum albumin (BSA). Tumor cells are added to the wells and nonadherent cells are removed by washing with phosphate-buffered saline (PBS). Attached cells may be trypsinized and counted electronically or the cells may be fixed, stained with chemical agents, such as crystal violet solution and the optical density of the solutions determined using a microtiter plate reader in the range from 590-405 nm. Extrapolation of OD to the number of cells bound may be obtained by comparison of readings to a standard curve obtained by incubating various numbers of cells in tissue culture wells for a time sufficient to allow firm attachment but not permit significant cell division (about 5 h), and washing and staining as above.
The laminin B1 l-40 peptide, along with the previously described YIGSR and CDPGYIGSR peptides, were dissolved in phosphate-buffered saline (PBS) and were coated onto Falcon #3915 polystyrene 96-well plates at 37° C. for 60 min. The peptide solutions were removed, and the wells were washed twice with PBS. Nonspecific cell binding was prevented by adding 200 ul 0.1% bovine serum albumin (BSA) (Sigma #4965) in PBS to the wells and incubating for 60 min at 37° C. The BSA was removed by washing twice with PBS. B16/F10 cells (murine melanoma) in log phase growth were harvested after 2 min exposure to 0.05% trypsin/0.1% EDTA in PBS, suspended in growth medium (DMEM+10% FBS), centrifuged, and resuspended in binding medium (DMEM+20 mM HEPES+0.1% BSA). 100 ul of cells (3-4×10^4 cells) were added to each well and incubated for 60 min at 37° C. Nonadherent cells were removed by rapid rotation of the plate, addition of PBS, aspiration of all but 50 ul of the contents of the wells; the washing procedure was repeated two more times. After the final wash, the entire solution was slowly aspirated, and the cells were fixed by the addition of 100 ul methanol for 15 min. The methanol was removed and the cells were air-dried before staining for 5 min with 100 ul 0.1% crystal violet solution. The stain was removed and the wells were washed with 200 ul H2 O and air dried. The cells were solubilized by adding 100 ul of 2% deoxycholic acid and heating gently in a microwave oven. The optical density of the solutions was read on a Molecular Devices Corporation plate reader at a wavelength between 590 nm and 405 nm. Extrapolation of optical density to number of cells bound was done by comparison of readings to a standard curve obtained by incubating various numbers of cells to microtiter plate wells for 5 h (to allow firm attachment but no significant dividing), and washing and staining as described above.

[2] = test system: human fibrosarcoma HT-1080 and Chinese hamster ovary cells; conditions: cited from earlier work
B16F10 melanoma cells = conditions: cited from earlier work
[3] = 0.02 ug/ml peptide used to coat the wells
[4] = 0.20 ug/ml peptide used to coat the wells
[5] = 2.00 ug/ml peptide used to coat the wells

Substance | Relative Number of Bound Cells [1, 3] | Relative Number of Bound Cells [1, 4] | Relative Number of Bound Cells [1, 5] | cell attachment activity ([2]; HT-1080 and Chinese hamster ovary cells) | activity in cell attachment relative to laminin ([2]; on a molar basis) | migration of B16F10 melanoma cells (B16F10 melanoma cells)
CDPGYIGSR [CDPGYIGSR] | 0.2 | 0.3 | 0.45 | directly active in cell attachment | 0.5-1% | promote the migration
YIGSR [YIGSR] | 0.15 | 0.1 | 0.1 | – | – | –

— patent publication US5175251A, “Antimetastatic peptides with laminin activity” (SRI International, priority 1991, dated 1992)
